Reference: patent US20220402973A1, “POLYPEPTIDE FRAGMENT C (MP-C) AND USE THEREOF” (SHANGHAI LONGXIN BIOMEDICAL TECHNOLOGY CO., LTD., priority 2021, published 2022)
Some results were stated once for a whole list of compounds, not compound by compound.

System: DSS-induced IBD in mice
Experiment: DAI scoring in DSS-induced acute IBD mouse model
Format: in vivo, mice (male C57BL6)
Conditions: experimental method of Example 1
Procedure: The administration of a DSS solution with a specified concentration to mice can induce an acute IBD model characterized by diarrhea, hematochezia, ulcer, and granulocyte infiltration. Mice were randomly grouped according to body weights of the mice. 40 healthy male C57BL6 mice were divided into four groups each with 10 mice:
blank control group: the mice were each intragastrically administered with water every day at a volume of 0.4 mL/20 g;
model group: the mice were each intragastrically administered with a DSS aqueous solution of a mass fraction of 2.5 wt % consecutively for 7 days, where the DSS aqueous solution was freshly prepared and changed every day; […]
The body weight changes of mice in each group were recorded every day to determine whether the acute IBD mouse model was successfully established.
After DSS induction, the body weight changes, activities, and feces viscosity of the mice in each group were recorded every day. […] A mouse colon between an anus end to an ileocecal end was integrally collected, and a length of the colon was measured; and the colon was dissected along a longitudinal axis, feces therein was rinsed off, and then the colon was stored in 4% […] or frozen at −80° C.
Experimental data in the above experimental method were expressed as (x±SD), the GraphPad Prism (ver. 8.0, GraphPad Software Inc., San Diego, Calif., USA) was used to plot a chart, the SPSS Program (ver. 25.0, SPSS Inc., Chicago, Ill., USA) was used for statistical test, and one-way ANOVA or independent two-sample t-test were used for significance test when the normality and homogeneity of variances were met. […]

Row | Sequence | analysis results (DAI, colonic pathologic morphology, histopathologic score) compared with Example 1
1 | THTVGSYFQVQNGYVGAFSEALGNSEYAMPSPLGSLDGRTTMYNLL [Example 3] | not much different from the results of Example 1
2 | THTVGSYFYVQNGYVGAFSSALGNSEYAMTSPLGSLDGRTTGYNLL [Example 2] | not much different from the results of Example 1
3 | THTVGSYFGVQNGYVGAFSQALGNSEYAMLSPLGSLDGRTTYNLL [Example 4] | not much different from the results of Example 1
